In patent publication US20090137484A1, “Neuronal Network-Interacting Peptide” (NATIONAL UNIVERSITY OF SINGAPORE, priority 2004, published 2009) one finds binding data, which are given here for two molecules.

The chains behind the UniProt entries cited, without tags or fusion partners. Residues count along the entry.
UniProt O43639, residues 199-257: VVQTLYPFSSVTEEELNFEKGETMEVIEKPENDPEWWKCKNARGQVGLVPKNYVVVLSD

Assay [1] deals with third Grb4 SH3 domain, Grb4 residues 199-257 (human) (UniProt O43639). In words: ITC.
Assay [2] shares this target. In words: NMR HSQC titration.

Results are given in words; binding and its absence hold for the method and conditions named. Some results given as binding are weak or reduced against the parent protein; the word gives no strength.

With ARPPPPPPAS (N-terminal acetyl (Ac-), C-terminal amide (-NH2)) [Nogo-A (141-150) Ac-…-NH2], the binding result in assay [1] and in assay [2] was “binds” each time.

Consider STPAAPKRRGS (N-terminal acetyl (Ac-), C-terminal amide (-NH2)) [Nogo-A (171-181) Ac-…-NH2], for which the binding result in assay [1] and in assay [2] was “binds” each time.
